# Data published in PubChem BioAssay AID1347075 (National Center for Advancing Translational Sciences (NCATS), 2019).
# Screen size: about 400,000 compounds; about 5,500 (1.4%) were called active. Inconclusive results, whose numbers are uncertain, are shown with a selection of clear calls. Calls follow the shape of the dose curve; as a rule, active = well fitted cell-killing curve with a large enough effect; inconclusive = small, poorly fitted or top-dose-only effect, or effect the other way; inactive = flat fitted curve, though single readings scatter. A potency beside an inconclusive call is a rough fit, not a confirmed value.
# Experiment: qHTS assay for MDR1-selective chemotherapeutics: Primary screen using the parental adenocarcinoma cell KB-3-1; also: nearly all actives have a fitted effect of over 60% in size
# Details: KB-3-1 viability, CellTiter-Glo ATP luminescence, 72 h; series mostly up to 46.1 µM
# In short: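 Luminescent ATP read-out (CellTiter-Glo) measures survival of drug-naive KB-3-1 cells after 72 h compound exposure at 37 °C. Titration series was screened from lowest to highest concentration, with DMSO vehicle plates as background controls.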
# Potency is read from the fitted curve at half-maximal effect.
row,Compound,Potency
1,Cc1ccc(C)c(Cn2c(C(=O)O)c(C=O)c3ccccc32)c1,inactive
2,CCOC(=O)[C@]12Cc3cc(Cl)ccc3[C@H]1N(CC(=O)OC)C(=O)c1ccccc12,active: 3.66 µM
3,CN(C)c1ccc(C=C2C(=O)NC(=S)NC2=O)cc1,"inconclusive: 29.1 µM [cytotoxic, single point]"
4,CC(=NCc1cccnc1)c1c(O)n(C2CCCCC2)c(=O)[nH]c1=O,inactive
5,CCOC(=O)C1(CCOc2ccccc2)CCN(C2Cc3ccccc3C2)CC1,"inconclusive: 18.4 µM [cytotoxic, single point]"
6,Cc1nc2ccccc2c(=O)n1-c1c(Cl)cccc1Cl,"inconclusive: 16.4 µM [cytotoxic, single point]"
7,Cc1ccc(S(=O)(=O)Oc2ccccc2C=C2C(=O)N(C)C(=O)N(C)C2=O)cc1,"inconclusive: 29.1 µM [cytotoxic, single point]"
8,C[N+](C)(C)CC1CCCC(C[N+](C)(C)C)C1=O (stereo not given),"inconclusive: 32.6 µM [cytotoxic, partial curve, poor fit]"
9,CCCC(=O)Nc1ccc(N2CCN(CC)CC2)c(Cl)c1,inactive
10,O=C1C(=O)c2ccccc2-c2ccccc21,active: 5.17 µM
11,C=CCn1c(O)c(C=NCCCn2ccnc2)c(=O)[nH]c1=O,"inconclusive: 20.6 µM [rising, single point]"
12,CCN1CCN(c2ccc(NC(C)=O)cc2Cl)CC1,inactive
13,CC(Cc1ccccc1Sc1ccc(O)cc1)N(C)C (stereo not given),"inconclusive: 20.6 µM [cytotoxic, single point]"
14,COC(=O)C1=C(c2cc3ccccc3s2)C[C@@H]2CC[C@H]1N2C(=O)N1CCC(O)CC1,"inconclusive: 0.164 µM [cytotoxic, full curve]"
15,COc1ccc(OC)c(CC(=O)N(C)C2CCCN(Cc3ccccc3F)C2)c1 (stereo not given),inactive
16,COc1ccc(-n2c(C)nc3cc(C(=O)N4CCC5(CC4)OCCO5)ccc32)cc1,"inconclusive: 29.1 µM [cytotoxic, single point]"
17,C=CCn1cc(C=C2C(=O)N(C)C(=O)N(C)C2=O)c2ccccc21,"inconclusive: 16.4 µM [rising, partial curve, poor fit]"
18,O=C(COc1ccc(Cl)cc1)N1CCN(Cc2ccc([N+](=O)[O-])cc2)CC1,"inconclusive: 25.9 µM [cytotoxic, single point]"
19,COc1cc2c(cc1OC)-c1c(OC)c(OC)cc3c1[C@H](C2)N(C)CC3,"inconclusive: 32.6 µM [cytotoxic, single point]"
20,COC1=C(C)C(=O)C2=C(C1=O)C(CO)N1C(C#N)C3CC4C(C1C2N1CCOC41)N3C (stereo not given),"inconclusive: 0.164 µM [cytotoxic, full curve, poor fit]"

# Some of the entries above in a different format.
row	Compound	Potency
15	COc1ccc(OC)c(CC(=O)N(C)C2CCCN(Cc3ccccc3F)C2)c1 (stereo not given)	inactive
18	O=C(COc1ccc(Cl)cc1)N1CCN(Cc2ccc([N+](=O)[O-])cc2)CC1	inconclusive: 25.9 µM [cytotoxic, single point]
